These are yes or no findings as the source states them, for the method shown. Binding seen in cells or lysates may run through a third protein. Some entries that bind do so weakly or less than the wild type.
Molecular target: T1, Transforming growth factor beta regulator 4 (human (endogenous in Huh7)) (UniProt Q969Z0)
T1 sequence: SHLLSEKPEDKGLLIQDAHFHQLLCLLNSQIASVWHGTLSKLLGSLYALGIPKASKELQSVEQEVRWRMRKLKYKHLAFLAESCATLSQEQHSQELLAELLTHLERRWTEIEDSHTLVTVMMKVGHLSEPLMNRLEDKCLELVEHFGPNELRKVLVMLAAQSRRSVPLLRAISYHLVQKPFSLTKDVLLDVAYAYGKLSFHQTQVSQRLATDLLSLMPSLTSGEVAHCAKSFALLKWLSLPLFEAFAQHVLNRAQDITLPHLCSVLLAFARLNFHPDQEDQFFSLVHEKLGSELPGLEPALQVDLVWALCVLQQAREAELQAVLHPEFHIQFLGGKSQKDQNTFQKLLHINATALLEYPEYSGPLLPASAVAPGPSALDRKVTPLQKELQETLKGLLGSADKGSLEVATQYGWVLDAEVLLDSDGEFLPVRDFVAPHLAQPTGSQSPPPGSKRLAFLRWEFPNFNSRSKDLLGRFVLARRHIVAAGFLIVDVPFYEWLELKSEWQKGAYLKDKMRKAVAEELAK
Assay: co-IP; Huh7 cells lysed in RIPA; agarose beads and TBRG4 antibody, shaken overnight; Western blot; the results call it a reciprocal Co-IP

Chains of the proteins cited; added tags and fusions are not shown.
UniProt Q14457: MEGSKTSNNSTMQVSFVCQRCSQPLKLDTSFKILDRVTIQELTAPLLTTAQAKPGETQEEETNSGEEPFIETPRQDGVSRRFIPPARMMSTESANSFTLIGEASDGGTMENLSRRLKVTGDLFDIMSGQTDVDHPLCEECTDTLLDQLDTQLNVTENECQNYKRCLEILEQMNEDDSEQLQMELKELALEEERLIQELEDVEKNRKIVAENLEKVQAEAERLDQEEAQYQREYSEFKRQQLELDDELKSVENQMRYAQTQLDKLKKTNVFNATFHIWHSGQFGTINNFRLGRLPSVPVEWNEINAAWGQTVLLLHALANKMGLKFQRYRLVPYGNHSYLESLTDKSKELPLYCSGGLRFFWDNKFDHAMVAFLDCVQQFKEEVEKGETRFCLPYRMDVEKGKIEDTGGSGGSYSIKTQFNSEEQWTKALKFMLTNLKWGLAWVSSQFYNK

- binding: binds
Substance: Beclin1 (from UniProt Q14457 1-450)

From article PMC10860303
